Experimental data from patent US8367702B2, “Quinolone derivative” (Astellas Pharma Inc., priority 2007, dated 2013).
The name of at least one read-out is uncertain.

Experiment: Oral glucose tolerance test using mice
Type: in vivo
Details: 3 mg/kg orally 5 minutes prior to oral glucose loading (2 g/kg); 30 minutes after glucose loading; relative to control group; male ICR or C57BL/6 J mice
Description: Test 2: Oral Glucose Tolerance Test Using Mice
This test is intended to evaluate an inhibitory action of a test compound on elevation of the blood glucose level after glucose loading, using mice. A test method is described hereinafter.
Male ICR or C57BL/6 J mice (6 weeks old, available from CLEA JAPAN, Inc.) pre-bred for one week were fasted overnight and used as test animals. A test compound was suspended in 10% PEG-60 Hydrogenated Castor Oil (HCO-60) aqueous solution, and was orally administered (3 mg/kg) to animals 5 minutes prior to oral glucose loading (2 g/kg). The control group was given a 10% HCO-60 aqueous solution. According to the following equation, a blood glucose-lowering rate (%) at 30 minutes after glucose loading was calculated for the test compound-treated group relative to the control group. An increase in the blood glucose level of the test compound-treated group and an increase in the blood glucose level of the control group were taken as A and B, respectively. Blood glucose-lowering rate (%)=100−[(A/B)×100]

With `Cc1c(COc2cc(OCCCC(C)(C)O)ccn2)[nH]c2ccccc2c1=O` [Ex 188] as the molecule, how does the blood glucose-lowering rate read?
Its blood glucose-lowering rate is 105%.

For `Cc1c(COc2cccc(OCC3CCOCC3)c2)[nH]c2ccccc2c1=O` [Example 2, 3-methyl-2-{[3-(tetrahydro-2H-pyran-4-ylmethoxy)phenoxy]methyl}quinolin-4(1H)-one], which blood glucose-lowering rate is on record?
The blood glucose-lowering rate was 93%.

With `Cc1c(COc2cc(OCCC3CCOCC3)ccn2)[nH]c2ccccc2c1=O` [Example 8, 3-methyl-2-[({4-[2-(tetrahydro-2H-pyran-4-yl)ethoxy]pyridin-2-yl}oxy)methyl]quinolin-4(1H)-one] as the molecule, how does the blood glucose-lowering rate read?
The blood glucose-lowering rate was 70%.
